Experimental data taken from PubChem BioAssay (EPA / NIEHS).
Several values for one entry are separate records, joined by “and”; a condition that tells them apart may be missing. Equal entries are not always repeated. Inconclusive means that the source gave no clear call. Such entries were picked first, then a sample of the others. Potencies beside an inconclusive call are fits to weak or partial responses and may not hold up. Activity calls are given as the source filed them. Rule for the calls: active = hit-call score of the fitted dose curve at least 0.9, where 1 is the maximum; inconclusive = response in the unintended direction; inactive = score below 0.9.

Chains of the proteins cited; added tags and fusions are not shown.
UniProt P04637, whole entry, looked up: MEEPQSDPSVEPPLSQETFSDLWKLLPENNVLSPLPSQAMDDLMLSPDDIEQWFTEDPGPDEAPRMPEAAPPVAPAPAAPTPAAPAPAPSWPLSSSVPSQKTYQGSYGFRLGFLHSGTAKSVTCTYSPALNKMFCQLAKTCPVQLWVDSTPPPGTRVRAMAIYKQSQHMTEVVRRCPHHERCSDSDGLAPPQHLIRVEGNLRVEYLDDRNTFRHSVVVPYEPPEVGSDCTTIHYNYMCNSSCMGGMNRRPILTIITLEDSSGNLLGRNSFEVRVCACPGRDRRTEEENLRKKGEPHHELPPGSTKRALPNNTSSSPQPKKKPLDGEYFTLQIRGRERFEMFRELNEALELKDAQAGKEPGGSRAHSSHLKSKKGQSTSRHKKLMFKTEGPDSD

target: Cellular tumor antigen p53 (Homo sapiens) (UniProt P04637); test: TOX21_p53_BLA_p3_ratio: Tox21 HCT-116 p53 Agonism Beta-lactamase Assay, Ratio, Phase 3 (AID 2283596)
Procedure, shortened: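 Cells were seeded at 4000/well, rested 5 h at 37C, then dosed with DMSO compound solutions (217-fold dilution) for 16 h. CCF4-AM substrate was loaded for 2 h at room temperature, and the 460/530 nm emission ratio was fitted for gain of signal versus DMSO.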

Question: With C[C@@H]1C[C@H]2O[C@@]3(O[C@@H]2C(C)(C)O)[C@H](O)[C@@]2(C)[C@@H]4CC[C@H]5C(C)(C)[C@@H](O[C@@H]6OC[C@@H](O)[C@H](O)[C@H]6O)CC[C@@]56C[C@@]46CC[C@]2(C)[C@@H]13 as the molecule, how does the outcome read?
Answer: Its outcome is “inactive”.

Question: With CCC(=O)C=CC1C(C)=CCCC1(C)C (stereo unspecified) as the molecule, how does the AC50 read?
Answer: Its AC50 is inconclusive: 79.6 µM.

Question: Which AC50 does the source give for CC(=O)Nc1cccc(O)c1 here?
Answer: Its AC50 is inconclusive: 45.9 µM and inconclusive: 23 µM.

Question: Which AC50 does the source give for Nc1ccc2cc(S(=O)(=O)O)cc(O)c2c1 here?
Answer: Its AC50 is inconclusive: 74.1 µM.

Question: Which AC50 does the source give for CN1CC(=O)N/C1=N/C(=O)Nc1cccc(Cl)c1 here?
Answer: The AC50 was inconclusive: 23 µM.

Question: For CCCOC(C(=O)OC1CCN(C)CC1)(c1ccccc1)c1ccccc1, which outcome is on record?
Answer: The outcome was “inactive”.

Question: With CCOc1ccc(NC(C)=O)cc1N as the molecule, how does the AC50 read?
Answer: The AC50 was inconclusive: 46.6 µM.

Question: Which AC50 does the source give for Cc1cc(-c2ccccc2)nnc1NCCN1CCOCC1 here?
Answer: The AC50 was inconclusive: 42.3 µM.

Question: For CO/N=C(\C(=O)N[C@@H]1C(=O)N2C(C(=O)OCOC(=O)C(C)(C)C)=C(/C=C\c3scnc3C)CS[C@H]12)c1csc(N)n1, which AC50 is on record?
Answer: Its AC50 is inconclusive: 23 µM.

Question: For CCN(CC)Cc1cc(Nc2ccnc3cc(Cl)ccc23)ccc1O, which AC50 is on record?
Answer: Its AC50 is inconclusive: 10.3 µM.

Question: For CCOC(=O)c1ccc(OCCN2C[C@H](O)[C@@H](O)[C@H](O)[C@H]2CO)cc1, which AC50 is on record?
Answer: Its AC50 is inconclusive: 23 µM.

Question: For C=C(C)C1CCC(C)(O)CC1 (stereo unspecified), which AC50 is on record?
Answer: Its AC50 is inconclusive: 46.1 µM.

Question: With O=C(CCN1CCN2CCCC2C1)N1c2ccccc2Sc2ccc(Cl)cc21 (stereo unspecified) as the molecule, how does the AC50 read?
Answer: Its AC50 is inconclusive: 23 µM.

Question: For COc1cc(C(=O)OC(COCCC(C)C)CN2CCOCC2)cc(OC)c1OC (stereo unspecified), which AC50 is on record?
Answer: The AC50 was inconclusive: 23 µM.

Question: Which AC50 does the source give for C[C@H]1C[C@H]2[C@@H]3CCC4=CC(=O)C=C[C@]4(C)[C@@]3(F)[C@@H](O)C[C@]2(C)[C@@]1(O)C(=O)CCl here?
Answer: The AC50 was inconclusive: 36 µM.

Question: For O=C(O)[C@@H]1C[C@H](CP(=O)(O)O)CCN1, which outcome is on record?
Answer: Its outcome is “inactive”.

Question: For O=C1O[C@H]2[C@H](O)[C@@H]1OC(O)[C@H]2O (stereo partly specified), which AC50 is on record?
Answer: Its AC50 is inconclusive: 42.3 µM.

Question: Which AC50 does the source give for Oc1ccccc1C=NCc1ccccc1 here?
Answer: Its AC50 is inconclusive: 23 µM.

Question: For O=C1CCC(=O)O1, which AC50 is on record?
Answer: Its AC50 is inconclusive: 46.3 µM.

Question: Which AC50 does the source give for O=c1[nH]ncc2ccccc12 here?
Answer: The AC50 was inconclusive: 45.4 µM.

Question: With COC(=O)C(c1ccccc1Cl)N1CCc2sccc2C1 (stereo unspecified) as the molecule, how does the AC50 read?
Answer: The AC50 was inconclusive: 23 µM.

Question: Which AC50 does the source give for CC(C)CN(C[C@@H](O)[C@H](Cc1ccccc1)NC(=O)O[C@H]1CO[C@H]2OCC[C@H]21)S(=O)(=O)c1ccc(N)cc1 here?
Answer: Its AC50 is inconclusive: 35.1 µM.

Question: With CCN(CC)CCNC(=O)c1ccc(NS(C)(=O)=O)cc1 as the molecule, how does the AC50 read?
Answer: The AC50 was inconclusive: 23 µM.

Question: Which AC50 does the source give for O=C1OC(=O)c2cc([N+](=O)[O-])ccc21 here?
Answer: Its AC50 is inconclusive: 46 µM.

Question: For COc1ccc(N=[N+]([O-])c2ccc(OC)cc2)cc1, which AC50 is on record?
Answer: The AC50 was inconclusive: 45.7 µM.

Question: With CCN1CCN(c2cc(-c3ccc(F)cc3)c3c(n2)CCCCCC3)CC1 as the molecule, how does the AC50 read?
Answer: Its AC50 is inconclusive: 23 µM.

Question: Which AC50 does the source give for N/C(=N\N=Cc1ccc(Cl)cc1)NN=Cc1ccc(Cl)cc1 here?
Answer: The AC50 was active: 37.6 µM.

Question: Which AC50 does the source give for CC(C)OCC1CO1 (stereo unspecified) here?
Answer: Its AC50 is inconclusive: 45.9 µM.

Question: For Nc1ccc(F)cc1F, which outcome is on record?
Answer: The outcome was “inactive”.

Question: Which AC50 does the source give for CCCc1cc(C(N)=S)ccn1 here?
Answer: Its AC50 is inconclusive: 23 µM.

Question: With O=C(CCCCC(=O)Nc1c(I)cc(I)c(C(=O)O)c1I)Nc1c(I)cc(I)c(C(=O)O)c1I as the molecule, how does the AC50 read?
Answer: The AC50 was inconclusive: 23 µM.

Question: For OC[C@]1(O)OC[C@@H](O)[C@H](O)[C@@H]1O, which AC50 is on record?
Answer: The AC50 was inconclusive: 23 µM.

Question: For C[C@@H]1C\C=C/C=C/C=C/C=C/[C@H](O[C@@H]2O[C@H](C)[C@@H](O)[C@H](N)[C@@H]2O)C[C@@H]2O[C@](O)(C[C@@H](O)C[C@@H]3O[C@@H]3/C=C\C(=O)O1)C[C@H](O)[C@H]2C(=O)O, which AC50 is on record?
Answer: The AC50 was inconclusive: 23 µM.

Question: For C=C(C)C(=O)OCCNC(C)(C)C, which AC50 is on record?
Answer: Its AC50 is inconclusive: 84.1 µM.

Question: With CCCCCCCCCCCCCCCCCCOP(=O)([O-])OC1CC[N+](C)(C)CC1 as the molecule, how does the AC50 read?
Answer: Its AC50 is inconclusive: 11.5 µM.

Question: With CC1=C(C)C(=O)C(CCCCC#CCCCC#CCO)=C(C)C1=O as the molecule, how does the outcome read?
Answer: Its outcome is “inactive”.

Question: With CN(C)CCOCCN(C)CCO as the molecule, how does the outcome read?
Answer: Its outcome is “inactive”.

Question: For O=C1C(=Cc2cccs2)CCCC1=Cc1cccs1, which outcome is on record?
Answer: Its outcome is “inactive”.

Question: Which outcome does the source give for CC(O)C(CO)C(C)O (stereo unspecified) here?
Answer: The outcome was “inactive”.

tested on: not listed separately; test: TOX21_p53_BLA_p4_viability: Viability Assessment in the Tox21 HCT-116 p53 Agonism Beta-lactamase Assay, Phase 4 (AID 2283597);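 note: hits lower the luminescence signal meaning cytotoxicity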
Procedure, shortened: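 ATP content by CellTiter-Glo luminescence, 30 min RT, read after the beta-lactamase ratio step. Cells: HCT116, 4000/well, compound added after 5 h, exposure 16 h at 37C. Signal loss = reduced viability.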

Question: With CCC(=O)C=CC1C(C)=CCCC1(C)C (stereo unspecified) as the molecule, how does the AC50 read?
Answer: The AC50 was inconclusive: 46.2 µM.

Question: For CCCOC(C(=O)OC1CCN(C)CC1)(c1ccccc1)c1ccccc1, which outcome is on record?
Answer: The outcome was “inactive”.

Question: For Cc1cc(-c2ccccc2)nnc1NCCN1CCOCC1, which AC50 is on record?
Answer: Its AC50 is inconclusive: 0.000859 µM.

Question: Which AC50 does the source give for CO/N=C(\C(=O)N[C@@H]1C(=O)N2C(C(=O)OCOC(=O)C(C)(C)C)=C(/C=C\c3scnc3C)CS[C@H]12)c1csc(N)n1 here?
Answer: The AC50 was inconclusive: 23 µM.

Question: For CCOC(=O)c1ccc(OCCN2C[C@H](O)[C@@H](O)[C@H](O)[C@H]2CO)cc1, which AC50 is on record?
Answer: The AC50 was inconclusive: 23 µM.

Question: With C=C(C)C1CCC(C)(O)CC1 (stereo unspecified) as the molecule, how does the AC50 read?
Answer: Its AC50 is inconclusive: 46.1 µM.

Question: For O=c1[nH]ncc2ccccc12, which outcome is on record?
Answer: The outcome was “inactive”.

Question: For COC(=O)C(c1ccccc1Cl)N1CCc2sccc2C1 (stereo unspecified), which AC50 is on record?
Answer: Its AC50 is inconclusive: 6.01e-05 µM.

Question: Which AC50 does the source give for COc1ccc(N=[N+]([O-])c2ccc(OC)cc2)cc1 here?
Answer: The AC50 was inconclusive: 0.131 µM.

Question: Which outcome does the source give for CC(C)OCC1CO1 (stereo unspecified) here?
Answer: The outcome was “inactive”.

Question: With Nc1ccc(F)cc1F as the molecule, how does the outcome read?
Answer: Its outcome is “inactive”.

Question: Which AC50 does the source give for C[C@@H]1C\C=C/C=C/C=C/C=C/[C@H](O[C@@H]2O[C@H](C)[C@@H](O)[C@H](N)[C@@H]2O)C[C@@H]2O[C@](O)(C[C@@H](O)C[C@@H]3O[C@@H]3/C=C\C(=O)O1)C[C@H](O)[C@H]2C(=O)O here?
Answer: Its AC50 is inconclusive: 23 µM.

Question: For CCCCCCCCCCCCCCCCCCOP(=O)([O-])OC1CC[N+](C)(C)CC1, which AC50 is on record?
Answer: Its AC50 is inconclusive: 11.5 µM.

Question: Which AC50 does the source give for CC1=C(C)C(=O)C(CCCCC#CCCCC#CCO)=C(C)C1=O here?
Answer: Its AC50 is inconclusive: 0.882 µM.

Question: With CN(C)CCOCCN(C)CCO as the molecule, how does the AC50 read?
Answer: The AC50 was inconclusive: 46.1 µM.

Question: Which outcome does the source give for O=C1C(=Cc2cccs2)CCCC1=Cc1cccs1 here?
Answer: The outcome was “inactive”.
